Here are results for four molecules from EP4725966A1, “HUMAN EPIDERMAL GROWTH FACTOR 3 ANTIBODY, PREPARATION METHOD THEREFOR, AND USE THEREOF” (priority 2023, dated 2024).

Sequences of proteins named here, by UniProt entry; tags and fusion partners are left off. A change or cut given only in a name is not applied to a line headed by its entry. A line that says so, or that is headed by a name, gives the form on record, which may keep a tag or linker.
cynomolgus HER3-ECD-His (G7PIG5, form named): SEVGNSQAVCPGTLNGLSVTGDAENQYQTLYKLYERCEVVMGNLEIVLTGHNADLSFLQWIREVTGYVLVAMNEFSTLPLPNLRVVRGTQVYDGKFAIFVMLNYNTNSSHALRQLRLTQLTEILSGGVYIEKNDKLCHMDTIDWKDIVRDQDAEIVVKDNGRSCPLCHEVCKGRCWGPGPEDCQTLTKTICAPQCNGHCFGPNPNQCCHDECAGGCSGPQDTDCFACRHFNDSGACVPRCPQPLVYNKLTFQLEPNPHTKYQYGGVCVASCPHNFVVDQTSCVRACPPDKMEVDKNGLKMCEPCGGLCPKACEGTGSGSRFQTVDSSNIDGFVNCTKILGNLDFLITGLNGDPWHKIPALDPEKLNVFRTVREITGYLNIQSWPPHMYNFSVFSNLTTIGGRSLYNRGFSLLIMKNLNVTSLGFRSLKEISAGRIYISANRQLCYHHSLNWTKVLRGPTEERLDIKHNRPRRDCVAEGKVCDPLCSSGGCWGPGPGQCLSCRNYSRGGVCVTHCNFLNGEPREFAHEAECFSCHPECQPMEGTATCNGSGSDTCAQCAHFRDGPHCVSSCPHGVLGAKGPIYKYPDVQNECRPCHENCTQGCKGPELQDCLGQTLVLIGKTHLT
cynomolgus HER3 on CHO cells (G7PIG5, form named): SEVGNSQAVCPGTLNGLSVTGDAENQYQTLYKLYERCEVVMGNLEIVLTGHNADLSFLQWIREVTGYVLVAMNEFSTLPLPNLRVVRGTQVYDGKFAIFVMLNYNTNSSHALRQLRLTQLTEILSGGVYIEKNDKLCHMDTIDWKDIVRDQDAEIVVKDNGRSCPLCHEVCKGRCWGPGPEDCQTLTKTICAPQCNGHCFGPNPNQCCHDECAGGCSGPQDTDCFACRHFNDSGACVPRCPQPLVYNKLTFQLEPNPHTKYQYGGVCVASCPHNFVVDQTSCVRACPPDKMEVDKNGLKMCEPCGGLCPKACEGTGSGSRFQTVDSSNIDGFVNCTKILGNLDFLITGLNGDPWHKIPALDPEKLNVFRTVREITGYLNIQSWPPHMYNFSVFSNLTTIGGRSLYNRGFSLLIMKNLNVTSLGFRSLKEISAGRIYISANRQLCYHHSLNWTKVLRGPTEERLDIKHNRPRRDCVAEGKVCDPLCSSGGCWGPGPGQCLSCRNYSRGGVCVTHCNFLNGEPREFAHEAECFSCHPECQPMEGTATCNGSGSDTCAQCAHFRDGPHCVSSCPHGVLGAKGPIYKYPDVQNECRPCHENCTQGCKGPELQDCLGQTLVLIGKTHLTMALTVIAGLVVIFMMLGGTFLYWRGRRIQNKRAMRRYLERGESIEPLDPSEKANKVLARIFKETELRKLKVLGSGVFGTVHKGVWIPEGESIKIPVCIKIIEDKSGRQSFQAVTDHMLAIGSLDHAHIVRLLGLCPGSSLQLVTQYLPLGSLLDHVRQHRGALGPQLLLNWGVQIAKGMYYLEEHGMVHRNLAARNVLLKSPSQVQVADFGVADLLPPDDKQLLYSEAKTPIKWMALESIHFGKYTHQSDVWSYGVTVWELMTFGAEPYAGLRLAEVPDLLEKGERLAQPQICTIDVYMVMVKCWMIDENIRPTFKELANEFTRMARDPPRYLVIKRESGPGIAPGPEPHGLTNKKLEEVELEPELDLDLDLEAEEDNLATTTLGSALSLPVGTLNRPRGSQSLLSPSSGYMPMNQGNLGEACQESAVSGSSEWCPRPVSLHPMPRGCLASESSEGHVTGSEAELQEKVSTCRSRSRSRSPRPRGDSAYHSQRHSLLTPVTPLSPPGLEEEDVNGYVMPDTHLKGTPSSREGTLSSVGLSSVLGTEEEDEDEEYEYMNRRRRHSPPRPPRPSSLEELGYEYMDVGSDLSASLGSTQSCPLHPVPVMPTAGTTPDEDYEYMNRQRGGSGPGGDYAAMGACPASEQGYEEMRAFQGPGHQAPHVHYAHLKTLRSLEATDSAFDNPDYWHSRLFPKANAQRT

For assay [1], the target named is cynomolgus HER3-ECD-His (cynomolgus monkey) (UniProt G7PIG5). Put plainly: ELISA on coated cyno HER3-ECD-His. A general note: ELISA stands for enzyme-linked immunosorbent assay.
Assay [2] has as its target cynomolgus HER3 on CHO cells (cynomolgus monkey) (UniProt G7PIG5). Kind of assay: FACS on CHO cells overexpressing cynomolgus monkey HER3.
The target in assay [3] is cynomolgus HER3-ECD-His (cynomolgus monkey) (UniProt G7PIG5). Put plainly: ELISA on coated cynomolgus HER3-ECD-His.

Numbering of substitutions follows the chain as printed. Names may count otherwise. No constants are given. Whether binding was seen depends on the method and setting. Some entries that bind do so weakly or less than the wild type.

B1: hHE4-G1W (antibody, human IgG1, V domains shown, not shown: a dimerising Fc or GST)
VH: QVQLVESGGGLVKPGGSLRLSCAASGFTFSSYVMSWVRQAPGKGLEWVATISDGDSSTYYADSVKGRFTISRDNAKNSLYLQMNSLRAEDTAVYYCARDKGHGYDEGAFVYWGQGTLVTVSS
VL: DIQMTQSPSSLSASVGDRVTITCRASENIYSYLAWYQQKPGKAPKLLIYNAKTLAEGVPSRFSGSGSGTDFTLTISSLQPEDFATYYCQNHYGTPYTFGQGTKLEIKR
As for B1, the binding entry in assay [1] and in assay [2] was “binds” each time.

B2: cHE6-G1W (antibody, human IgG1, V domains shown, not shown: a dimerising Fc or GST)
VH: EVQLQQSGPDLVKPGTSVKMSCKASGYTFTDYYMHWVRQSHGKSLEWIGYINPNNGDAIYNQKFKGKATLTVNKSSTTAYMALRSLTSEDSAVYFCATYDYGGDFYFDVWGTGTTVTVSS
VL: DIELTQSPALMSASPGEKVTMTCSASSSVSYMYWYQQKPRSSPKPWIYLTSNLASGVPARFSGSGSGTSYSLTISSMEAEDAATYYCQQWSRNPLTFGAGTKLELKR
In the case of B2, in assay [3], the binding entry is given as “binds”.

B3: cHE7-G1W (antibody, human IgG1, V domains shown, not shown: a dimerising Fc or GST)
VH: B2 VH with N73D
VL: B2 VL
Turning to B3, the binding entry in assay [3] is given as “binds”.

B4: cHE4-G1W (antibody, human IgG1, V domains shown, not shown: a dimerising Fc or GST)
VH: EVQLVESGGGLVKPGGSLKLSCAASGFTFSSYVMSWVRQTPEKRLEWVATISDGDSSTYYPDNVKGRFTISRDNAKNNLFLQMSHLKSEDTAMYFCARDKGHGYDEGAFVYWGQGTLVTVSA
VL: DIQMTQSPASLSASVEETVTITCRASENIYSYLAWYQQKQGKSPQLLVYNAKTLAEGVPSRFSGSGSGTEFSLKINSLQPEDFGSYYCQNHYGTPYTFGGGTKLEIKQ
In the case of B4, the binding entry in assay [1] and in assay [2] was “binds” in each case.
